No constants are given. Whether binding was seen depends on the method and setting. Binding seen in cells or lysates may run through a third protein. Some binding calls cover weakened binding; strength is not graded here.
B1: IKKβ (enzyme, UniProt O14920 1-756)
chain: MSWSPSLTTQTCGAWEMKERLGTGGFGNVIRWHNQETGEQIAIKQCRQELSPRNRERWCLEIQIMRRLTHPNVVAARDVPEGMQNLAPNDLPLLAMEYCQGGDLRKYLNQFENCCGLREGAILTLLSDIASALRYLHENRIIHRDLKPENIVLQQGEQRLIHKIIDLGYAKELDQGSLCTSFVGTLQYLAPELLEQQKYTVTVDYWSFGTLAFECITGFRPFLPNWQPVQWHSKVRQKSEVDIVVSEDLNGTVKFSSSLPYPNNLNSVLAERLEKWLQLMLMWHPRQRGTDPTYGPNGCFKALDDILNLKLVHILNMVTGTIHTYPVTEDESLQSLKARIQQDTGIPEEDQELLQEAGLALIPDKPATQCISDGKLNEGHTLDMDLVFLFDNSKITYETQISPRPQPESVSCILQEPKRNLAFFQLRKVWGQVWHSIQTLKEDCNRLQQGQRAAMMNLLRNNSCLSKMKNSMASMSQQLKAKLDFFKTSIQIDLEKYSEQTEFGITSDKLLLAWREMEQAVELCGRENEVKLLVERMMALQTDIVDLQRSPMGRKQGGTLDDLEEQARELYRRLREKPRDQRTEGDSQEMVRLLLQAIQSFEKKVRVIYTQLSKTVVCKQKALELLPKVEEVVSLMNEDEKTVVRLQEKRQKELWNLLKIACSKVRGPVSGSPDSMNASRLSQPGQLMSQPSTASNSLPEPAKKSEELVAEAHNLCTLLENAIQDTVREQDQSFTALDWSWLQTEEEEHSCLEQAS

Chains of the proteins cited; added tags and fusions are not shown.
UniProt Q99836: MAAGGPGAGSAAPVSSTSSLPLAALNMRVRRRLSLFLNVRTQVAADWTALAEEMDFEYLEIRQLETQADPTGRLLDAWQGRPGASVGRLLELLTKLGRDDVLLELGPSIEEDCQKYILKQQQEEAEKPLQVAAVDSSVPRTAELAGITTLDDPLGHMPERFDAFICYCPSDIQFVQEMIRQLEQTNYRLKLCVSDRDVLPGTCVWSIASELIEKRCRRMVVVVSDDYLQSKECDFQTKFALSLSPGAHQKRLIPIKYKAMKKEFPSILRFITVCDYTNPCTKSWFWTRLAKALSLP
UniProt Q06945: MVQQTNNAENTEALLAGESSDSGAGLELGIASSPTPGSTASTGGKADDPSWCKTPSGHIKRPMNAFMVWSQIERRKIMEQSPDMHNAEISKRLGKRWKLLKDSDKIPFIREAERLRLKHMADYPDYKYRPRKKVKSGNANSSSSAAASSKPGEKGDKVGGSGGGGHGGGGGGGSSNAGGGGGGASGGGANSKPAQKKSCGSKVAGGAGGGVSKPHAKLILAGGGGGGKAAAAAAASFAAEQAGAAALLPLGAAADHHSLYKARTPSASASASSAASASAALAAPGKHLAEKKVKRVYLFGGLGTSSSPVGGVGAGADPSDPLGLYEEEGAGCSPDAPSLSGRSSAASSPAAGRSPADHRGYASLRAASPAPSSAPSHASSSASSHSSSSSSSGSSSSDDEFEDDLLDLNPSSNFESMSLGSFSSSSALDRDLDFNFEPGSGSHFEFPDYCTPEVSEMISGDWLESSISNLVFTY
UniProt P51617: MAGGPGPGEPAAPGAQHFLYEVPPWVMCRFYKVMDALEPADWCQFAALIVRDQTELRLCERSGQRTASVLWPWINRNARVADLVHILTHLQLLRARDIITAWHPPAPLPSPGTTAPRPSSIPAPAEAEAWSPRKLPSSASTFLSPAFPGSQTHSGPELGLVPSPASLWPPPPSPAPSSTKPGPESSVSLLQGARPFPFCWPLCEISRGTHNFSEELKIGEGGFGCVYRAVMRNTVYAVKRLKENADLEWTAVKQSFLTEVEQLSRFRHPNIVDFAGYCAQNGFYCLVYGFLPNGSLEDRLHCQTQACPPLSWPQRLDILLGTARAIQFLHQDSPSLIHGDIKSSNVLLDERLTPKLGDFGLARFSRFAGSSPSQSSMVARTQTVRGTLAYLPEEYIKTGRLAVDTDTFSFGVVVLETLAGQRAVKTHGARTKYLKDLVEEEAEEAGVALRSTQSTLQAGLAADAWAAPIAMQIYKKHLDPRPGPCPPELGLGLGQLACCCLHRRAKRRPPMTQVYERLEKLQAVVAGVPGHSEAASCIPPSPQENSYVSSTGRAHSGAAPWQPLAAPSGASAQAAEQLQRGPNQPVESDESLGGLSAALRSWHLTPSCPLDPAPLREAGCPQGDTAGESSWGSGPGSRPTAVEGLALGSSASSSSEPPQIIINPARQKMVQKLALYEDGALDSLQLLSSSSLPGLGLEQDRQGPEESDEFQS
UniProt P25963: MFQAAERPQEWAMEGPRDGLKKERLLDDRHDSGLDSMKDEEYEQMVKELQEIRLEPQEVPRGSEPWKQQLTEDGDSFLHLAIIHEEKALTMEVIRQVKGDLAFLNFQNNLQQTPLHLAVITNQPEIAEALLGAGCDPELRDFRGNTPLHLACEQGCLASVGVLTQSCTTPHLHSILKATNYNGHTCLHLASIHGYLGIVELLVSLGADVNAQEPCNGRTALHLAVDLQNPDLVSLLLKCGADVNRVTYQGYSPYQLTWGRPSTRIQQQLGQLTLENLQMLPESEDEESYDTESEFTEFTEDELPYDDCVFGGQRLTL

Key:
[1] = molecular target: Myeloid differentiation primary response gene 88 (MyD88) (human (endogenous in L02)) (UniProt Q99836); test: co-IP
[2] = molecular target: FLAG-Sox4 (sex-determining region Y-box 4) (UniProt Q06945); test: co-IP; HEK293T cells transfected with pFlag-Sox4 or its deletion mutants; lysed in RIPA buffer (20 mM Tris-HCl pH7.4, 150 mM NaCl, 1 mM EDTA, 1% Triton-X-100); precipitated with antibody to Flag and protein G Sepharose, 4°C; blotted for endogenous IKKα, IKKβ, IKKα/β or IκBα

Row | binding [1] | binding [2] | Molecule
1 | binds |  | IL-1 receptor-associated kinase 1 (IRAK1) (from UniProt P51617 1-712) (enzyme)
2 |  | no binding | IκBα (from UniProt P25963 1-317)
3 |  | binds | B1

Source: publication PMC7894441
